PubChem BioAssay AID1259308, NCATS, 2017
Purpose: 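Genes whose loss raises luciferase production in HEK293 cells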 (primary screen). System: human HEK293 embryonic kidney cells stably expressing firefly luciferase (HEK-CMV-Luc2-Hygro). Reagent: single siRNA against human genes, 0.8 pmol siRNA per well. Duration: 72 h. Read-out: 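Luciferase light (ONE-Glo) measured on one replicate plate set and viability (CellTiter-Glo) on the other, scaled to a negative control siRNA, with robust z-scores and luciferase per cell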. Direction: total luciferase, z-score and total luciferase, % of control: higher = more reporter protein produced. Hit rule: 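An siRNA counts as active if its total luciferase robust z-score exceeds 3; genes with two or more such siRNAs out of three were retested with fresh siRNAs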. Meaning of the calls: active = raised luciferase; inactive = no rise.
Shown is a random part of about 59,000 deposited reagents. About 1,510 of them (2.6%) were called active. 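Calls use total luciferase alone and ignore viability, so some active siRNAs may act by altering cell number.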 Reagents against one gene are numbered here. Not all columns of the deposit are shown.

DEPDC4 #1 | total luciferase, z-score = 2.38; total luciferase, % of control = 129; Call = inactive
DEPDC4 #2 | total luciferase, z-score = -0.709; total luciferase, % of control = 67.8; Call = inactive
DEPDC4 #3 | total luciferase, z-score = 0.281; total luciferase, % of control = 87.5; Call = inactive
STAU2 #1 | total luciferase, z-score = 0.169; total luciferase, % of control = 85.2; Call = inactive
STAU2 #2 | total luciferase, z-score = -0.43; total luciferase, % of control = 73.3; Call = inactive
STAU2 #3 | total luciferase, z-score = -1.68; total luciferase, % of control = 48.5; Call = inactive

Records listed so far whose gene name starts with D or d (3):
DEPDC4 #1 | total luciferase, z-score = 2.38; total luciferase, % of control = 129; Call = inactive
DEPDC4 #2 | total luciferase, z-score = -0.709; total luciferase, % of control = 67.8; Call = inactive
DEPDC4 #3 | total luciferase, z-score = 0.281; total luciferase, % of control = 87.5; Call = inactive

Next entries:
NRG3 #1 | total luciferase, z-score = 0.933; total luciferase, % of control = 100; Call = inactive
NRG3 #2 | total luciferase, z-score = -1.39; total luciferase, % of control = 54.2; Call = inactive
NRG3 #3 | total luciferase, z-score = 2.68; total luciferase, % of control = 135; Call = inactive
GIP #1 | total luciferase, z-score = -0.326; total luciferase, % of control = 75.4; Call = inactive
GIP #2 | total luciferase, z-score = 0.322; total luciferase, % of control = 88.3; Call = inactive
GIP #3 | total luciferase, z-score = -1.33; total luciferase, % of control = 55.4; Call = inactive
